Results on one sequence are retold here after paper PMC9085725.

Construct, isoform or probe ends are uncertain for at least one entry.

The subject of the series is mucin 1 protein (MUC1). Nature of the series: graphene oxide fluorescence quenching/recovery with DNase I amplification. The note with it: graphene oxide 15 ug/mL, DNase I 2 U/mL, probe 40 nM, MUC1 5 ng/mL; 10 mM Tris, 100 mM NaNO3, pH 7.4; 37 °C 15 min with MUC1, GO 5 min, DNase I 37 °C 15 min; fluorescence read at room temperature; commercial protein; label: 5'-FAM; single-stranded DNA.

As for “CCCGTCTTCCAGACAAGAGTGCAGGG [MUC1 aptamer (FAM probe)]”, the binding result is “binds”.
